Laboratory results: PubChem BioAssay AID1259285 (Sanger Institute, 2017)
Test: 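Kinases needed for HCC56 growth and kinases whose loss boosts drug effects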 (primary screen). Cells: human HCC56 colorectal cancer cells. Reagent: siRNA pool against human genes. Treatment: DMSO vehicle, or anchor drug BYL719 at 1 µM, cetuximab at 5 µg/ml, or trametinib at 10 nM. Detection: 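Replicate-averaged viability relative to non-targeting siRNA, expressed as a robust z-score from controls, plus a synergy score for each of three anchor drugs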. Scale: viability robust z-score, no drug: higher = more viable cells, weaker knock-down effect; viability vs non-targeting pool, no drug: higher = more viable cells; synergy score with BYL719: higher = stronger combined killing with BYL719; synergy score with cetuximab: higher = stronger combined killing with cetuximab; synergy score with trametinib: higher = stronger combined killing with trametinib. Rule for the call: 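a knock-down counts as essential if its viability z-score without drug is under -3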. Calls: active = essential without drug; inactive = no change without drug.
This is a random part of 794 reagents tested. 20 of them (2.5%) count as active. 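Calls rest on the drug-free arm alone and ignore synergy scores; viability ratios seem to be capped at 1.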 A number with no mark means an inactive call. No sequences are given here. Not given: the amount of reagent, the time to read-out.

no.	Gene	viability robust z-score, no drug	viability vs non-targeting pool, no drug	synergy score with BYL719	synergy score with cetuximab	synergy score with trametinib
1	BRWD1	0.458	1	-0.097	-0.027	0.0416
2	EPHA7	0.405	0.995	-0.114	-0.138	0.0247
3	TSSK4	0.458	1	-0.162	-0.142	-0.0449
4	STK33	0.458	1	0.0146	-0.142	-0.0271
5	BRD2	0.382	0.993	-0.0236	-0.124	-0.0661
6	KMT2B	0.458	1	-0.114	-0.142	-0.0805
7	DDR2	0.458	1	-0.148	-0.107	-0.0949
8	IKBKB	0.458	1	-0.0474	-0.142	0.0504
9	MAPK7	0.458	1	0.0595	0.0791	0.0451
10	MAPK9	0.458	1	-0.138	-0.142	-0.0868
11	PFKFB2	0.458	1	-0.139	-0.142	-0.226
12	ATRX	0.458	1	-0.162	-0.142	-0.167
13	MLKL	0.458	1	-0.162	-0.131	-0.139
14	FGFR4	0.458	1	-0.162	-0.142	-0.0771
15	KIT	0.458	1	-0.162	-0.142	-0.0538
16	LIMK2	0.458	1	-0.162	-0.142	-0.135
17	STK10	-1.1	0.866	0.116	0.145	-0.0246
18	TJP2	0.458	1	-0.108	-0.142	-0.0382
19	PDGFRB	-2.06	0.783	0.0644	0.127	0.0424
20	PKIB	0.458	1	-0.15	-0.142	0.0307

2 entries from above in another layout:
ATRX
- viability robust z-score, no drug: 0.458
- viability vs non-targeting pool, no drug: 1
- synergy score with BYL719: -0.162
- synergy score with cetuximab: -0.142
- synergy score with trametinib: -0.167

MLKL
- viability robust z-score, no drug: 0.458
- viability vs non-targeting pool, no drug: 1
- synergy score with BYL719: -0.162
- synergy score with cetuximab: -0.131
- synergy score with trametinib: -0.139
